The list does not hold the whole screen: it is rich in T/C values a quarter to a half above the control, in often repeated tests (any T/C) and in doses without a T/C. Other doses and runs of a compound stand elsewhere. T/C: endpoint of the treated group in % of that of the vehicle group. Some entries give survivors of the animals treated and no T/C: the source files T/C as zero there, which appears to mark a toxic dose or a test without result, not a measured value. Some survivor counts are full or nearly so, which does not show that the dose was tolerated: survival well below the control is almost never listed, so the zero probably covers shortened survival too. Counts of survivors are from the toxicity check (mostly the fifth day) where no day follows; animals may have died later. Schedule codes are those of the source, taken here to give the interval after Q, in days (D) or hours (H), and the number of doses after X. Some schedules carry Z or #; the key to these is not given. Some entries hold several experiments; the values are given in rising order. Where survival is the endpoint, this PubChem deposit counts one and a half times the control or more as active, and values a quarter to a half above the control carry no call in these data; other NCI protocols may use other cut-offs. Additions like (4×) stand for listed records that agree. Some T/C values are followed by the survivors on the day toxicity was checked, most often the fifth; without a count, all were alive then.

In this experiment the test system is CD2F1 mice, L1210 leukemia ip, survival T/C. The experiment can be described thus: NCI In Vivo Anticancer Drug Screen. Data for tumor model L1210 Leukemia (intraperitoneal) in CD2F1 (CDF1) mice. The conditions noted are these: higher T/C = longer survival. In outline:
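In this screen, transplantable tumors were grown in mice given either the compound or its vehicle. Results were expressed as the treated measurement relative to the control measurement.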

Where [1] appears, read: T/C endpoint: mean survival time, dose: 400.0 mg/kg/injection, schedule: Q01DX001 (ip), vehicle: saline with Tween-80.
[2] abbreviates: T/C endpoint: mean survival time, dose: 400.0 mg/kg/injection, schedule: Q04DX003 (ip), vehicle: saline.
Where [3] appears, read: T/C endpoint: mean survival time, dose: 400.0 mg/kg/injection, schedule: Q04DX003 (ip), vehicle: saline with Tween-80.
[4] abbreviates: T/C endpoint: mean survival time, dose: 400.0 mg/kg/injection, schedule: Q01DX009 (ip), vehicle: saline with Tween-80.
Setting [5] is: T/C endpoint: mean survival time, dose: 200.0 mg/kg/injection, schedule: Q01DX009 (ip), vehicle: other.
[6] abbreviates: T/C endpoint: mean survival time, dose: 400.0 mg/kg/injection, schedule: Q01DX009 (ip), vehicle: other.
Setting [7] is: T/C endpoint: mean survival time, dose: 200.0 mg/kg/injection, schedule: Q01DX009 (ip), vehicle: saline with Tween-80.

As for `N#CC(C#N)=C/C=C/c1cccc([N+](=O)[O-])c1`, the survivor count (T/C endpoint: mean survival time, dose: 25.0 mg/kg/injection, schedule: Q01DX009 (ip), vehicle: Klucel (hydroxypropylcellulose) (HPC)) is 2 of 6 and the survivor count (T/C endpoint: mean survival time, dose: 50.0 mg/kg/injection, schedule: Q01DX009 (ip), vehicle: Klucel (hydroxypropylcellulose) (HPC)) is listed as 0 of 6.
On to `CC(CC(=O)O)[Se][Se]C(C)CC(=O)O` (stereo unspecified), for which the T/C under setting [1] is 126 % of control [2 of 3 alive].
As for `O=C(O)CS(=O)(=O)CC(=O)O`, the survivor count reads like this: (T/C endpoint: mean survival time, dose: 100.0 mg/kg/injection, schedule: Q01DX001 (ip), vehicle: saline with Tween-80) 3 of 6; (T/C endpoint: mean survival time, dose: 200.0 mg/kg/injection, schedule: Q01DX001 (ip), vehicle: saline with Tween-80) 3 of 6; under setting [1], 0 of 6.
`CC(=O)C1CN(C(C)(C)C)C1`: the survivor count reads like this: (T/C endpoint: mean survival time, dose: 100.0 mg/kg/injection, schedule: Q04DX003 (ip), vehicle: saline) 3 of 6; (T/C endpoint: mean survival time, dose: 200.0 mg/kg/injection, schedule: Q04DX003 (ip), vehicle: saline) 0 of 6; under setting [2], 0 of 6.
For `N#CC(C#N)=c1ccc(=C(C#N)C#N)cc1`, the survivor count is recorded as 5 of 6 (T/C endpoint: mean survival time, dose: 200.0 mg/kg/injection, schedule: Q04DX003 (ip), vehicle: saline with Tween-80) and 0 of 6 under setting [3].
As to `COC(=O)C1CC[N-]CC1.COC(=O)C1CC[N-]CC1.[Cl][Pt+2][Cl]`, the survivor count under setting [4] is reported as 1 of 6.
With `N#Cc1cn(C2OC(CO)C(O)C2O)c2nc(NN)nc(N)c12` (stereo unspecified), the survivor count (T/C endpoint: mean survival time, dose: 200.0 mg/kg/injection, schedule: Q01DX005 (ip), vehicle: water) is on record as 4 of 6.
As for `CC1(C)N=C(N)N=C(N)N1c1ccc(OCCNS(=O)(=O)c2cccc(S(=O)(=O)F)c2)c(Cl)c1`, the T/C was 129 % of control (T/C endpoint: mean survival time, dose: 50.0 mg/kg/injection, schedule: Q01DX009 (ip), vehicle: saline with Tween-80) and 130 % of control (T/C endpoint: mean survival time, dose: 100.0 mg/kg/injection, schedule: Q01DX009 (ip), vehicle: saline with Tween-80). In addition, the survivor count under setting [4] is 0 of 6.
On to `CCCCCCCCCC(=O)NC(=S)Nc1cccc(C(C)=O)c1`, for which the survivor count is 6 of 6 under setting [1] and 3 of 6 under setting [4].
Take `CCCCSC#N`: the survivor count is given as 0 of 3 (T/C endpoint: mean survival time, dose: 25.0 mg/kg/injection, schedule: Q01DX001 (ip), vehicle: saline); 0 of 3 (T/C endpoint: mean survival time, dose: 50.0 mg/kg/injection, schedule: Q01DX001 (ip), vehicle: saline); 0 of 3 (T/C endpoint: mean survival time, dose: 100.0 mg/kg/injection, schedule: Q01DX001 (ip), vehicle: saline); 0 of 3 (T/C endpoint: mean survival time, dose: 200.0 mg/kg/injection, schedule: Q01DX001 (ip), vehicle: saline); 0 of 3 (T/C endpoint: mean survival time, dose: 400.0 mg/kg/injection, schedule: Q01DX001 (ip), vehicle: saline).
For the compound `CSC(=S)N(C)/N=C/c1ccccn1`, under setting [4], the survivor count is given as 3 of 6.
Turning to `O=C(NO)c1ccccc1`, the survivor count reads like this: (T/C endpoint: mean survival time, dose: 400.0 mg/kg/injection, schedule: Q01DX009 (ip), vehicle: saline sonified) 3 of 6; (T/C endpoint: mean survival time, dose: 400.0 mg/kg/injection, schedule: Q01DX009 (ip), vehicle: saline) 2 of 6 and 4 of 10; (T/C endpoint: mean survival time, dose: 800.0 mg/kg/injection, schedule: Q01DX009 (ip), vehicle: saline) 8 of 10.
Consider `O=C(NC(=S)Nc1cccc(F)c1)c1cccc(Br)c1`, for which the T/C reads like this: (T/C endpoint: mean survival time, dose: 100.0 mg/kg/injection, schedule: Q01DX009 (ip), vehicle: other) 93, 98, 101, 111 % of control; under setting [5], 98 [5 of 6 alive], 107 [4 of 6 alive], 115 % of control. For the same compound, the survivor count under setting [5] is 1 of 3; the survivor count (T/C endpoint: mean survival time, dose: 400.0 mg/kg/injection, schedule: Q01DX001 (ip), vehicle: other) is 0 of 6; the survivor count under setting [6] was 0 of 3 and 1 of 6.
As to `O=NN(CCCl)C(=O)Nc1ccc(Br)cn1`, the T/C is, setting by setting: (T/C endpoint: mean survival time, dose: 13.0 mg/kg/injection, schedule: Q01DX001 (ip), vehicle: carboxymethylcellulose (CMC)) 125 % of control; (T/C endpoint: mean survival time, dose: 30.0 mg/kg/injection, schedule: Q01DX001 (ip), vehicle: carboxymethylcellulose (CMC)) 136 % of control.
For `COC1N(C2CC(O)C(CO)O2)C(=O)NC(=O)C1(F)Br` (stereo unspecified), the survivor count is, setting by setting: (T/C endpoint: mean survival time, dose: 6.25 mg/kg/injection, schedule: Q01DX009 (ip), vehicle: saline) 0 of 10; under setting [2], 6 of 6. In addition, the T/C (T/C endpoint: mean survival time, dose: 12.5 mg/kg/injection, schedule: Q01DX009 (ip), vehicle: saline) was 128 % of control; the T/C (T/C endpoint: mean survival time, dose: 25.0 mg/kg/injection, schedule: Q01DX009 (ip), vehicle: saline) was 126 and 136 % of control [9 of 10 alive]; the T/C (T/C endpoint: mean survival time, dose: 50.0 mg/kg/injection, schedule: Q01DX009 (ip), vehicle: saline) was 132 % of control (2×).
In the case of `C=CCOP(=O)(OCC=C)C1(Cl)C(Cl)=C(Cl)C(=O)C(Cl)=C1Cl`, the survivor count is reported as 1 of 6 under setting [7] and 0 of 6 under setting [4].
Regarding `CNC(=O)OC[C@H]1C2=C(C(=O)C(C)=C(N)C2=O)N2C[C@H]3N[C@H]3[C@@]12OC`, the T/C (T/C endpoint: mean survival time, dose: 27.5 mg/kg/injection, schedule: Q01DX001 (ip), vehicle: carboxymethylcellulose (CMC)) is 148 % of control.
As for `CC1CCC2N(C1)CC1C3(O)CC4(O)C(CCC5C(=O)C(O)CCC54C)C3(O)CC(O)C1(O)C2(C)O` (stereo unspecified), the survivor count is, setting by setting: (T/C endpoint: mean survival time, dose: 75.0 mg/kg/injection, schedule: Q01DX001 (ip), vehicle: saline) 0 of 6; (T/C endpoint: mean survival time, dose: 150.0 mg/kg/injection, schedule: Q01DX001 (ip), vehicle: saline) 0 of 6; (T/C endpoint: mean survival time, dose: 300.0 mg/kg/injection, schedule: Q01DX001 (ip), vehicle: saline) 0 of 6.
Turning to `O=C(CNC(=O)c1ccccc1)N/N=C/c1cccc([N+](=O)[O-])c1`, the survivor count under setting [7] is recorded as 6 of 6.
In the case of `CSc1sc2ccccc2[n+]1C`, the T/C (T/C endpoint: mean survival time, dose: 100.0 mg/kg/injection, schedule: Q01DX009 (ip), vehicle: saline) was 127 % of control.
Consider `CC1=C(N2CC2)C(=O)c2c(COC(N)=O)c3n(c2C1=O)CCC3OC(N)=O` (stereo unspecified), for which the T/C is, setting by setting: (T/C endpoint: mean survival time, dose: 12.0 mg/kg/injection, schedule: Q01DX001 (ip), vehicle: distilled water + Tween-80) 134 % of control; (T/C endpoint: mean survival time, dose: 24.0 mg/kg/injection, schedule: Q01DX001 (ip), vehicle: distilled water + Tween-80) 131 and 138 % of control.
Regarding `O=C1OC2C(I)C3CC1C2C3` (stereo unspecified), under setting [3], the survivor count is recorded as 5 of 6.
On to `CCCC(=O)NC1=C(Cl)C(=O)c2ccccc2C1=O`, for which the survivor count is on record as 0 of 6 (T/C endpoint: mean survival time, dose: 40.0 mg/kg/injection, schedule: Q01DX001 (ip), vehicle: saline) and 0 of 6 (T/C endpoint: mean survival time, dose: 80.0 mg/kg/injection, schedule: Q01DX001 (ip), vehicle: saline).
Turning to `CC(=O)OC1CCC2(C)C3=CCC4(C)C(C(C)/C=C\C(C)C(C)C)CCC4C34C=CC2(C1)C1C(=O)OC(=O)C14` (stereo unspecified), the survivor count is, setting by setting: (T/C endpoint: mean survival time, dose: 200.0 mg/kg/injection, schedule: Q04DX002 (ip), vehicle: saline with Tween-80) 3 of 3; (T/C endpoint: mean survival time, dose: 400.0 mg/kg/injection, schedule: Q04DX002 (ip), vehicle: saline with Tween-80) 3 of 3.
As to `O=c1[nH]ccc(=S)[nH]1`, under setting [1], the survivor count is 6 of 6.
Take `CC[C@@H](C)[C@@H]1NC(=O)C(NC(=O)C(CC(C)C)N(C)C(=O)C2CCCN2C(=O)C(C)O)C(C)OC(=O)C(Cc2ccc(OC)cc2)N(C)C(=O)C2CCCN2C(=O)C(CC(C)C)NC(=O)C(C)C(=O)C(C(C)C)OC(=O)C[C@H]1O` (stereo partly specified): the T/C (T/C endpoint: median survival time, dose: 20.0 micrograms/kg/injection, schedule: Q01DX009 (ip), vehicle: distilled water + alcohol) was 131 % of control. Besides, the survivor count by setting is: (T/C endpoint: median survival time, dose: 200.0 micrograms/kg/injection, schedule: Q01DX009 (ip), vehicle: distilled water + alcohol) 5 of 6; (T/C endpoint: median survival time, dose: 400.0 micrograms/kg/injection, schedule: Q01DX009 (ip), vehicle: distilled water + alcohol) 1 of 6.
Take `Nc1ncnc2c1ncn2C1OC(COCc2ccccc2)C(OCc2ccccc2)C1OCc1ccccc1` (stereo unspecified): the survivor count (T/C endpoint: mean survival time, dose: 40.0 mg/kg/injection, schedule: Q01DX Z (ip), vehicle: saline) is 6 of 6.
In the case of `CC(=O)C1CCC2C3CC=C4CC(n5c(=O)cc[nH]c5=O)CCC4(C)C3CCC12C` (stereo unspecified), the T/C (T/C endpoint: mean survival time, dose: 200.0 mg/kg/injection, schedule: Q04DX003 (ip), vehicle: Klucel (hydroxypropylcellulose) (HPC)) is 130 % of control.
`COB(C1CCCCC1)C1CCCCC1`: the survivor count under setting [6] was 5 of 6.

The values are drawn from PubChem BioAssay AID256 (DTP/NCI, 2004).
